# About 22,000 (6.9%) of roughly 320,000 compounds were called active. Inconclusive results, whose numbers are uncertain, are shown with a selection of clear calls. The call rests on the fitted dose curve; in most records, active means well fitted inhibition curve with a large enough effect; inconclusive means small, poorly fitted or top-dose-only effect, or another doubt; inactive means no such curve, though single readings can be large or run the other way. A potency beside an inconclusive call is a rough fit, not a confirmed value.
# Test: Primary qHTS for delayed death inhibitors of the malarial parasite plastid, 96 hour incubation
# Conditions: P. falciparum luciferase reporter growth; series mostly up to 28.7 µM
# Procedure, shortened: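 Plates of compound plus infected erythrocytes (2% hematocrit, 0.05% parasitemia final) incubate 96 hours, 37 C, 5% CO2. Detection reagent added; reduced luminescence from the parasites' luciferase reporter flags inhibition.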
# Potency means the concentration at half of the fitted maximal effect.
row,SMILES,Potency
1,CC(=O)c1cccc(NC(=O)CN(c2ccc(C)cc2)S(=O)(=O)c2cccc3nonc23)c1,"inconclusive: 2.94 µM [inhibitor, partial curve, poor fit]"
2,COc1ccc(C(=O)Nc2cc(OC)c(Cl)cc2OC)cc1,active: 5.22 µM
3,CC(=C/c1ccco1)/C=N/NC(=O)CSc1nnc(SCc2ccc(C)cc2)s1,inactive
4,O=C(COc1ccc(F)cc1)c1c(O)cc(O)cc1O,"inconclusive: 13.1 µM [inhibitor, single point]"
5,Cc1cc(C)nc(NC2=NCCN2C(=S)Nc2ccc(C)c(C)c2)n1,"inconclusive: 10.4 µM [inhibitor, single point]"
6,CC(=O)c1cc(-c2ccccc2)n(CCC(=O)NC(C)(C)C)c1C,"inconclusive: 11.7 µM [inhibitor, single point]"
7,COCCN1C=C(C(=O)OC)C(c2cc3c(cc2Br)OCO3)C(C(=O)OC)=C1,"inconclusive: 14.7 µM [inhibitor, partial curve, poor fit]"
8,CC(=O)NS(=O)(=O)c1ccc(N=NN2CCOCC2)cc1,"inconclusive: 9.28 µM [inhibitor, partial curve]"
9,CC(=O)N1c2ccc(S(=O)(=O)N3CCCC(C(=O)Nc4cccc(F)c4)C3)cc2CC1C (configuration not stated),active: 11.7 µM
10,CC(=O)Nc1ccc(S(=O)(=O)N2CCCC(C(=O)O)C2)cc1 (configuration not stated),inactive
11,CCOC(=O)c1c(-c2ccccc2)oc2ccc(OCC(O)CN(C)C)cc12 (configuration not stated),"inconclusive: 11.7 µM [inhibitor, single point]"
12,COc1ccc(-c2ccccc2NC(=O)C2CCCN(Cc3ccc(C)o3)C2)cc1 (configuration not stated),"inconclusive: 14.7 µM [inhibitor, partial curve, poor fit]"
13,CC1(C)CC(=O)C=C(NCCN2CCN(C(=S)Nc3ccc(F)cc3)CC2)C1,"inconclusive: 14.7 µM [inhibitor, partial curve, poor fit]"
14,COc1ccc(CN(C)CC(=O)NC(C)c2ccccc2)c(OC)c1 (configuration not stated),"inconclusive: 0.104 µM [inhibitor, partial curve, poor fit]"
15,Cc1ccc(NC(=O)C2(c3ccccc3)CC2(Cl)Cl)cc1C (configuration not stated),"inconclusive: 7.38 µM [inhibitor, partial curve, poor fit]"
16,CCn1cc(C(=O)NCCCN2CCCC(C)C2)c(=O)c2cc(S(=O)(=O)N(C)C3CCCCC3)ccc21 (configuration not stated),active: 11.7 µM
17,Cc1cccc(N2CCN(C(=O)CCNS(=O)(=O)c3ccc4c(c3)CCC(=O)N4)CC2)c1C,"inconclusive: 18.5 µM [inhibitor, single point]"
18,Cc1cc(C)n(-c2ccc3nncn3n2)n1,"inconclusive: 11.7 µM [inhibitor, partial curve, poor fit]"
19,COc1cc(/C=N/N2CCN(c3ccccc3)CC2)cc(OC)c1OC(C)=O,"inconclusive: 0.165 µM [inhibitor, partial curve, poor fit]"
20,Fc1ccc(N2CCN(C3=Nc4cccc5cccc3c45)CC2)cc1,"inconclusive: 0.147 µM [inhibitor, full curve]"
21,CC(C)(C)c1cc(=O)n(-c2ccccc2)[nH]1,active: 10.4 µM

row,SMILES,Potency
1,Cc1cc(Br)c(NC(=O)CCl)c(Br)c1,"inconclusive: 1.85 µM [inhibitor, partial curve, poor fit]"
2,Cn1c(CC(=O)Nc2ccc(Cl)cc2)nnc1SCC(=O)N1CCOCC1,"inconclusive: 14.7 µM [inhibitor, single point]"
3,CC(C)NC(=O)NC(=O)CN1c2cccc3cccc(c23)S1(=O)=O,inactive
4,CC1N(C)c2cccc3cccc(c23)N1C,"inconclusive: 11.7 µM [inhibitor, partial curve, poor fit]"
5,Oc1ccc(/C=N/NC(=S)Nc2cccnc2)cc1,inactive
6,Cc1cccc(NC(=O)c2ccc(CN3CCc4ccccc4C3)cc2)c1C,"inconclusive: 18.5 µM [inhibitor, single point]"
7,Cc1cccc(CS(=O)(=O)Cc2ccc(C(=O)NCCc3ccccc3)o2)c1,"inconclusive: 2.94 µM [inhibitor, full curve]"
8,CC1=NN2C(=N)/C(=C\c3ccc(SCc4ccccc4)o3)C(=O)N=C2S1,"inconclusive: 4.15 µM [inhibitor, partial curve, poor fit]"
9,Cc1cc(C)c2oc(C(=O)N3CCN(C)CC3)cc(=O)c2c1,"inconclusive: 7.38 µM [inhibitor, partial curve, poor fit]"
10,Cc1ccc(C)c(NC(=O)CCC(=O)N/N=C/c2ccc[nH]2)c1,"inconclusive: 0.0329 µM [inhibitor, full curve]"
11,CCOC(=O)N1CCN(C(=O)CSc2ccc3nnc(CCNC(=O)c4ccccc4)n3n2)CC1,inactive
12,Cc1ccc(NC(=O)CSc2nnc(NC(=O)C3CC3)s2)cc1,inactive
13,CCOC(=O)c1nnc(-c2ccccc2)nc1Sc1ccccc1Cl,"inconclusive: 20.8 µM [inhibitor, partial curve, poor fit]"
14,O=C(NC1CCCCC1)Oc1cc2oc(=O)sc2cc1Cl,"inconclusive: 13.1 µM [inhibitor, partial curve, poor fit]"
15,O=C(NC(=S)Nc1nc2ccc(F)cc2s1)c1ccco1,"inconclusive: 10.4 µM [inhibitor, single point]"
16,Cc1ccc(/C=N/N=C2\SCC(=O)N2CC2CC2)cc1,inactive
17,CCN(c1ccc(OC)cc1)S(=O)(=O)N1CCCC(C(=O)NCc2cccc(C)c2)C1 (configuration not stated),"inconclusive: 0.0059 µM [inhibitor, full curve, poor fit]"
18,COC(=O)Nc1cccn(Cc2c(Cl)cccc2Cl)c1=O,"inconclusive: 0.0415 µM [inhibitor, full curve, poor fit]"
19,CCCCOc1ccc(Br)cc1CSC(=N)N,"inconclusive: 11.7 µM [inhibitor, partial curve, poor fit]"
20,CC(C)(C)NS(=O)(=O)c1ccc(CCC(=O)NCc2ccc3c(c2)OCO3)cc1,"inconclusive: 10.4 µM [inhibitor, single point]"
21,COc1ccc(N(Cc2ccccc2)S(=O)(=O)c2cc(C(=O)O)ccc2Cl)cc1,"inconclusive: 4.15 µM [inhibitor, single point]"

# 3 of these compounds, set out differently.
row	SMILES	Potency
13	CCOC(=O)c1nnc(-c2ccccc2)nc1Sc1ccccc1Cl	inconclusive: 20.8 µM [inhibitor, partial curve, poor fit]
14	O=C(NC1CCCCC1)Oc1cc2oc(=O)sc2cc1Cl	inconclusive: 13.1 µM [inhibitor, partial curve, poor fit]
15	O=C(NC(=S)Nc1nc2ccc(F)cc2s1)c1ccco1	inconclusive: 10.4 µM [inhibitor, single point]

# — PubChem BioAssay AID504834 (National Center for Advancing Translational Sciences (NCATS), 2011)
